In the test the target is T1, Ixonnexin (Ixodes scapularis) (UniProt Q4PMS3).
T1 sequence: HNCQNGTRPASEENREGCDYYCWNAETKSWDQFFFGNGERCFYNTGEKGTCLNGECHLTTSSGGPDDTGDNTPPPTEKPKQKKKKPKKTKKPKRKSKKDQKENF
The experiment in a line: SPR; Ixonnexin amine-coupled to a carboxymethylated dextran (CM5) chip, 726.2 RU; analytes injected 120 s at 30 µL/min, 25 °C, dissociation 600 s; global fit with the two-state (conformational change) model, Langmuir 1:1 for plasmin; both purified. (In general: Surface plasmon resonance follows binding to a sensor surface in real time, without labels.)

No constants are given. Whether binding was seen depends on the method and setting.

Take low molecular weight urokinase (enzyme): the binding entry is reported as “no binding (tested: 15–250 nM)”.
